Results are given in words; binding and its absence hold for the method and conditions named.

This test deals with recombinant mouse prion protein (mouse) (UniProt P04925). The experiment in a line: thioflavin T amyloid formation assay (PAFA); both purified.

With “recombinant mouse prion protein (from UniProt P04925 23-230)”, the binding result is on record as “no binding (condition: with > 0.01 mg/mL CpV extract)”.

The values above are taken from publication PMC9820341.
